# Data: patent US8691198B2, “Environmentally benign plasticizers based on derivatives of acetone” (priority 2010, dated 2014)
# Experiment: Tensile and elongation of plasticized poly(vinyl butyraldehyde) film (Instron 5500 Tensiometer)
# Conditions: PVB film, 28.78 % loading of plasticizer
structure (smiles),measurement,value
CCOC1(COC(=O)CC(C)C)COC(COC(=O)CC(C)C)(OCC)CO1 (centres unmarked) [Bis-isovalerate],Elongation (%),64.55%
same,Tensile (ksi),0.523 ksi
